From the supplement of paper PMC10849652
The list shows a part of the results.

The chains behind the UniProt entries cited, without tags or fusion partners. Where a name states a change or a piece, a line headed by the entry shows the natural chain unless it says otherwise.
UniProt Q8N3U4: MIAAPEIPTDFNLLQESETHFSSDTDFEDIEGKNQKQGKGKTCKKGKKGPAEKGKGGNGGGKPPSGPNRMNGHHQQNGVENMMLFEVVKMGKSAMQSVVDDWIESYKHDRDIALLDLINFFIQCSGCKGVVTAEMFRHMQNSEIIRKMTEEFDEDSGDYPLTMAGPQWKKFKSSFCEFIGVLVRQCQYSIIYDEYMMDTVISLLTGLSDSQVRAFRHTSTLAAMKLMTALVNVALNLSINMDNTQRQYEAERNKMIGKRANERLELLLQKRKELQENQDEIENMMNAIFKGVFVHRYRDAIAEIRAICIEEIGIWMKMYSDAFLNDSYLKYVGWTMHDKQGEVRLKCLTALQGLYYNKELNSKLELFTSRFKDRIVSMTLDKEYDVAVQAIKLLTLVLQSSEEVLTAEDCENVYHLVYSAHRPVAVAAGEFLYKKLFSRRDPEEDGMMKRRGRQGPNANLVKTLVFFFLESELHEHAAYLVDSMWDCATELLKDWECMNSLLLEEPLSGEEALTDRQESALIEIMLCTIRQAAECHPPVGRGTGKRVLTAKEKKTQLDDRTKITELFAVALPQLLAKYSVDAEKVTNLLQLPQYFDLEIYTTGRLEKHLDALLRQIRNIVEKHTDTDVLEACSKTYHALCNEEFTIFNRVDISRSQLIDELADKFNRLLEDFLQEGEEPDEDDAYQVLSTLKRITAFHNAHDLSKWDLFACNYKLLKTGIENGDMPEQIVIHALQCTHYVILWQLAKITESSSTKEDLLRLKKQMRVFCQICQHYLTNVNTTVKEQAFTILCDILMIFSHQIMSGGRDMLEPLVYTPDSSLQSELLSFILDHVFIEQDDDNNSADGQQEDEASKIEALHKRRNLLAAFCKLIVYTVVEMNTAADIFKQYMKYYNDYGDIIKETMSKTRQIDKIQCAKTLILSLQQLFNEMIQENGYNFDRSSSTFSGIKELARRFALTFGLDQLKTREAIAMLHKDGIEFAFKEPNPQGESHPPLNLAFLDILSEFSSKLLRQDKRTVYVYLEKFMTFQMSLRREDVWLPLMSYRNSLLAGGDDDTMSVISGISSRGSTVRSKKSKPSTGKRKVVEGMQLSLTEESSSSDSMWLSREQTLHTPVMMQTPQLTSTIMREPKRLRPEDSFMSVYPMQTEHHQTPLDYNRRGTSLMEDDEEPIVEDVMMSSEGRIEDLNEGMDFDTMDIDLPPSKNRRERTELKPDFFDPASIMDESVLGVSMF
UniProt P09486: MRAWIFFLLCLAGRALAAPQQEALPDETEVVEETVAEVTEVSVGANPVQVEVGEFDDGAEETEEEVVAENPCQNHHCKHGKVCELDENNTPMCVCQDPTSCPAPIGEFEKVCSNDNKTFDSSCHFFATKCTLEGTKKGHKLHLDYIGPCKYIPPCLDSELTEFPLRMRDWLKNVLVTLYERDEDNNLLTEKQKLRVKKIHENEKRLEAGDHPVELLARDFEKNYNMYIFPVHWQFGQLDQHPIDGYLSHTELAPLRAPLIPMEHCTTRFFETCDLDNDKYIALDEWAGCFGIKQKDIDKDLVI
UniProt Q92783: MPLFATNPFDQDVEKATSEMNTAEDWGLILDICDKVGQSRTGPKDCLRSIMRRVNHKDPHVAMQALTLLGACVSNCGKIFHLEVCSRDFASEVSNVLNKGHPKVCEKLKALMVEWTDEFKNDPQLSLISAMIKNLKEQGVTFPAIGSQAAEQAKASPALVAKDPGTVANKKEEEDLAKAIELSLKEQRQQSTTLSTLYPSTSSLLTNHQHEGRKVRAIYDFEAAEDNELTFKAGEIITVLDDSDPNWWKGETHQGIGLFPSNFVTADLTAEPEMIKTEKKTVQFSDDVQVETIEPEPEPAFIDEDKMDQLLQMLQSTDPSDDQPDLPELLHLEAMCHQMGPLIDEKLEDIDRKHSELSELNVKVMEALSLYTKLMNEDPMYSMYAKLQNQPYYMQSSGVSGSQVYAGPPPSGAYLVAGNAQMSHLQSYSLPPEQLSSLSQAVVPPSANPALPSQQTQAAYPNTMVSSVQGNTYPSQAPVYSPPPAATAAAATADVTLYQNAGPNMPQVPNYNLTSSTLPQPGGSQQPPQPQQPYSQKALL
UniProt O43805: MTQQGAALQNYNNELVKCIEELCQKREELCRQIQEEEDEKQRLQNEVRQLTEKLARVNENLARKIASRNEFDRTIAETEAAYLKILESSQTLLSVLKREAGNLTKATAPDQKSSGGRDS
UniProt Q9H2V7: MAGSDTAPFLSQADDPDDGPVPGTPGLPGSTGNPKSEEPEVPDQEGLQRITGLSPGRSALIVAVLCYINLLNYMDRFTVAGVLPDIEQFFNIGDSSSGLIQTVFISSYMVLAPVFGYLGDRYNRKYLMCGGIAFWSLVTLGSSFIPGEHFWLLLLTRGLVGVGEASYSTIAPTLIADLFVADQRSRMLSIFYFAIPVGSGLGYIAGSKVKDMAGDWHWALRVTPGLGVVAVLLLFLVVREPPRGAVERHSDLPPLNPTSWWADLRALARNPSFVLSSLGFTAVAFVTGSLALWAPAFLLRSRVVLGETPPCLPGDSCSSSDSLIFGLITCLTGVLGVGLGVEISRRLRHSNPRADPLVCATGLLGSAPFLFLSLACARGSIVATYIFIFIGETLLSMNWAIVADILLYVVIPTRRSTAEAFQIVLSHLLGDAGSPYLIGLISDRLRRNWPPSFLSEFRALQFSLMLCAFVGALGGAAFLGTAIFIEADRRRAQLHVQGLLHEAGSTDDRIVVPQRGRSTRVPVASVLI
UniProt P61009: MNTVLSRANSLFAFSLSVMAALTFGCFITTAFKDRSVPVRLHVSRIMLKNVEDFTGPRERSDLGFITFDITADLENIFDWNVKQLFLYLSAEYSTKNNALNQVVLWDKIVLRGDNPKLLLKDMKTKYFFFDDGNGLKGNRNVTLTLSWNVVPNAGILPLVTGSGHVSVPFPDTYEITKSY
UniProt Q5W111: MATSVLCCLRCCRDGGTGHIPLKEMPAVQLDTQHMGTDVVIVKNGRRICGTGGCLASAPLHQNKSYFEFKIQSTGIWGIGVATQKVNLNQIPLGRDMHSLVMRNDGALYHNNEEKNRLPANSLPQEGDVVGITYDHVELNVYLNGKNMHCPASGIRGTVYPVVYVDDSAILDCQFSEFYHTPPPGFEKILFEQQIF
UniProt Q9NRC1: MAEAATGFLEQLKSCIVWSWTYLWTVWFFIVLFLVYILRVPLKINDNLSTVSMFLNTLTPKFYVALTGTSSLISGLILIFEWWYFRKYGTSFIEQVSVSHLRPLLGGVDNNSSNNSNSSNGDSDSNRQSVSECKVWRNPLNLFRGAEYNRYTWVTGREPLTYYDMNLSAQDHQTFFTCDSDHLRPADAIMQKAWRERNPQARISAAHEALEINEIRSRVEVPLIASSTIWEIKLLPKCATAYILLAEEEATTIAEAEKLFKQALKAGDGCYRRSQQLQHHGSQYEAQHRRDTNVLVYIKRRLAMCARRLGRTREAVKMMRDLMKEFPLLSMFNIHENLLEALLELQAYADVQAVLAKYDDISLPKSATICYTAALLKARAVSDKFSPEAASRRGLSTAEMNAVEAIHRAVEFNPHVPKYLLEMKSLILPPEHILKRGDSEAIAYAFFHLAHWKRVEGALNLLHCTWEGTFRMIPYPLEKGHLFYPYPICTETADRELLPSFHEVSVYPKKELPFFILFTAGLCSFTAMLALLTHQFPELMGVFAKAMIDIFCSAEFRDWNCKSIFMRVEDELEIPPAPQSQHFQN
UniProt O15020, whole entry, looked up: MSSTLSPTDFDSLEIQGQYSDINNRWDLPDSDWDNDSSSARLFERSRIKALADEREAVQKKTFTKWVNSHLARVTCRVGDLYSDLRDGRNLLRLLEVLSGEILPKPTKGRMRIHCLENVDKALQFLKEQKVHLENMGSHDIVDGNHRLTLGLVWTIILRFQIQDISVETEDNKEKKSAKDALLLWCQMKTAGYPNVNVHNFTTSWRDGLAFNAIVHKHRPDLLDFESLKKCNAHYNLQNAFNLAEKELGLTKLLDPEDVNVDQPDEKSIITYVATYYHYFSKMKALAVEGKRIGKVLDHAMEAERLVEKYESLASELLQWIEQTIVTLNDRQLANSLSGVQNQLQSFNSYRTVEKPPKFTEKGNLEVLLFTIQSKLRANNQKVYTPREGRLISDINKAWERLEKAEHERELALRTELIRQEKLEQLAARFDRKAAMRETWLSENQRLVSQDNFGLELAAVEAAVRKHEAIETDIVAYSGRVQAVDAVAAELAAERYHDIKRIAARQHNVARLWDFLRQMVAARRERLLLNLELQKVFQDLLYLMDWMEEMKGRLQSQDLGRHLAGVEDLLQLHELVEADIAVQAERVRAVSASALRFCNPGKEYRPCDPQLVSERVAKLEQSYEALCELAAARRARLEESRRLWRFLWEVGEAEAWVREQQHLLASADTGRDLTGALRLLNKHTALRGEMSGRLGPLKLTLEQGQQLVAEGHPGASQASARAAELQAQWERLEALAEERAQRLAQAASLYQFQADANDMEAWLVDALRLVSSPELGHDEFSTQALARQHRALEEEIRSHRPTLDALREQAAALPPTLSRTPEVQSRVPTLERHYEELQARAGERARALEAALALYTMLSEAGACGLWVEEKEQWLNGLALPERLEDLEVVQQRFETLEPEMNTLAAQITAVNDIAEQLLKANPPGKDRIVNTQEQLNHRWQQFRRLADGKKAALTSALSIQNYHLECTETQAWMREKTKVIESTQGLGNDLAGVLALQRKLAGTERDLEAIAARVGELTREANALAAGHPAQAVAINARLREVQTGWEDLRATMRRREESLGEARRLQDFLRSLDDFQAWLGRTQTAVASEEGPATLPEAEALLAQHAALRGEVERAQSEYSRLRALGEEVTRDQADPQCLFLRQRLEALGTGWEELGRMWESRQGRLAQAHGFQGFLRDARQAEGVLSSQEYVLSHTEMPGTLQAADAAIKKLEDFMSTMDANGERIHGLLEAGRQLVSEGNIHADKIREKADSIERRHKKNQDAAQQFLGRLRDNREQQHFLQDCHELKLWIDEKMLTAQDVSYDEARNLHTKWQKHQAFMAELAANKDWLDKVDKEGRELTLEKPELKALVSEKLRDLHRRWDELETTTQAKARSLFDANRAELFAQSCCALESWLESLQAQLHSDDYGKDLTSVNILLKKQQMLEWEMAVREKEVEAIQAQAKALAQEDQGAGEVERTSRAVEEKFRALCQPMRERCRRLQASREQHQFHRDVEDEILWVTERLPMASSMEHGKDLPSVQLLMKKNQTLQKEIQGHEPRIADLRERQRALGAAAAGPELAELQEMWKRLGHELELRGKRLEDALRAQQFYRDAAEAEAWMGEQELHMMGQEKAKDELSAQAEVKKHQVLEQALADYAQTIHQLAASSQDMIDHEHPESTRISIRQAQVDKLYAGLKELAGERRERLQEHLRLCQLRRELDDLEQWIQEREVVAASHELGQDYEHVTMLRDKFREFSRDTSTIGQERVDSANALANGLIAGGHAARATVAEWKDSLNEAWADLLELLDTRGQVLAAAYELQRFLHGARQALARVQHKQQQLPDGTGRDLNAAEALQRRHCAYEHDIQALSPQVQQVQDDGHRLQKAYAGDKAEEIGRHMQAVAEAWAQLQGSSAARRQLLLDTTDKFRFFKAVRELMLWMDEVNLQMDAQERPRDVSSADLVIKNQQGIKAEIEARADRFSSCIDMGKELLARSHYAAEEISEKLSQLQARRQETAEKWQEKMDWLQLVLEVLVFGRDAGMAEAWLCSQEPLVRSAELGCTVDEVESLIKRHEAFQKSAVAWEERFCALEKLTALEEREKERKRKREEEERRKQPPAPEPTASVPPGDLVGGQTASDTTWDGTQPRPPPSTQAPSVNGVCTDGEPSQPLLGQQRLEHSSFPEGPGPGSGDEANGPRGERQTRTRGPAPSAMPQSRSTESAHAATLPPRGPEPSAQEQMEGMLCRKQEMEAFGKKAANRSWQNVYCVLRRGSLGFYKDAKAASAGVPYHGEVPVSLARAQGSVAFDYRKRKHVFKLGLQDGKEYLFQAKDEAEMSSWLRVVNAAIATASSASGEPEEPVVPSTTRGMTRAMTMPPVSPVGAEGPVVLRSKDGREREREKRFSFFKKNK
UniProt P50502: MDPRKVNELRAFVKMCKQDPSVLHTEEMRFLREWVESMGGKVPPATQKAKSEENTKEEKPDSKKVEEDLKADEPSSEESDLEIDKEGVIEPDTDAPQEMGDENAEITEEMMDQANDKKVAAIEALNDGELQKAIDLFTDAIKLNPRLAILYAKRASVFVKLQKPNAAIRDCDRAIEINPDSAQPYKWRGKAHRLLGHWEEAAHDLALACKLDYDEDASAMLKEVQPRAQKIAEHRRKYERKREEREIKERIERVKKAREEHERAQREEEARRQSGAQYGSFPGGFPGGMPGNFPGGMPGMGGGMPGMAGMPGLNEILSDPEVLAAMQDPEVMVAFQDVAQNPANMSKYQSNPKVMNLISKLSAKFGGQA

What follows are targets tested with Cc1nc(Nc2n[nH]c3c2CN(C(=O)N[C@H](CN(C)C)c2ccccc2)C3(C)C)c2sccc2n1 (assay: log2 fold change, soluble protein after heating vs DMSO (PISA); higher = thermal stabilisation; K562 cells, 10 uM, 30 min; active = over 0.2 and 3.5 SD of the protein, either way, in both replicates (recomputed)).
Summary of the method: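 Thermal stability values are relative to control samples and come from duplicates. They are expressed as log2 fold changes. For measurement, K562 cells (2×10^6 cells/mL) received 10 μM compound for 30 min, and aliquots were heated for 3 min over 48°C-58°C, pooled, and extracted at 4°C in PBS with 0.5% NP-40. Soluble protein, the supernatant after 21,000xg for 90 min, was quantified by TMTpro 16plex LC-MS/MS with equalised channel sums.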

log2 fold change, inactive:
STAG2 (UniProt Q8N3U4) -0.099
SQLE (UniProt Q14534) 0.003
SPARC (UniProt P09486) -0.121
SPTB isoform 2 (UniProt P11277) -0.329
STAM (UniProt Q92783) -0.019
SSNA1 (UniProt O43805) 0.007
SPNS1 (UniProt Q9H2V7) -0.009
SPCS3 (UniProt P61009) -0.021
SPRYD7 (UniProt Q5W111) -0.014
ST7 (UniProt Q9NRC1) 0.023
SPTBN2 (UniProt O15020) -0.056
SPIN1 (UniProt Q9Y657) -0.03
SPCS1, A0A5F9YFS9 0.051
ST13 (UniProt P50502) -0.009

Pulled one by one from above (2):
log2 fold change, inactive:
ST13 (UniProt P50502) -0.009
SPTBN2 (UniProt O15020) -0.056
